Among the data in article PMC7819943, “Rice protein-binding microarrays: a tool to detect cis-acting elements near promoter regions in rice” are binding signal values, retold here.

The other results are listed elsewhere or left out.

In this assay the target is T1, OsSMF1 (Oryza sativa, UniProt Q6ZLB0 1-436).
T1 sequence: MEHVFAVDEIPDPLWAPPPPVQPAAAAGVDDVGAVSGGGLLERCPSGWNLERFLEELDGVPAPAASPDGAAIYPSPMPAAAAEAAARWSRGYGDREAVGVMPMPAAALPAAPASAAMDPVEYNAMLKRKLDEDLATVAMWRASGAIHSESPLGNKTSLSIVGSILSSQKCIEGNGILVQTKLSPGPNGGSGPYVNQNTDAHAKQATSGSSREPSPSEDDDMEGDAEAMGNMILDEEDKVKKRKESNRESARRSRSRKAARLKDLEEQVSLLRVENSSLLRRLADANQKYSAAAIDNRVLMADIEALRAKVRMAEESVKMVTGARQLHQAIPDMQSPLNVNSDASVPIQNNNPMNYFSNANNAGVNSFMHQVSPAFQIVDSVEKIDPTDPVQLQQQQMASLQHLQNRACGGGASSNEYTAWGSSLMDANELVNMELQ
In words: protein-binding microarray (RPBM); PBS, 2% BSA, 51.3 ng/ul salmon testes DNA, 50 uM zinc acetate, 200 nM TF, 25 C, 1 h; high values mean tight binding. The note with it: protein: recombinant; tags: N-terminal polyhistidine and DsRed monomer fusion (pET32a); chain copies: 2; label: CyDye5-dUTP incorporated in the synthesized complementary strand; 3' TTTTT single-stranded linker to array surface; dsDNA, one strand shown. In outline:
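Binding signal here means per-feature fluorescence intensity in arbitrary units. The values were read on an Axon 4000B scanner after a custom Agilent array, double-stranded by primer extension with Cy5-dUTP, was incubated with 200 nM protein at 25 °C for 1 h in PBS with 2% BSA, salmon testes DNA and 50 µM zinc acetate, then washed. The proteins were transcription factors with an N-terminal polyhistidine tag and DsRed, expressed in E. coli BL21-CodonPlus and purified on Ni–NTA.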
Take “GTTGTTAGTGTATGTGTAAGCCAAATTAATCATATTGAACCGGAGTCACCTAGTGCAG”: the binding signal was 3240 fluorescence intensity (a.u.).

Turning to “CACGACCATCTCGGCACACGTCGCCTTCCACCTTATCGTCCGGAGTCACCTAGTGCAG”, the binding signal is 3530 fluorescence intensity (a.u.).

For “TAAACGTTGTCCTACGTGGCGACTGACACATCGGTCCCACCGGAGTCACCTAGTGCAG”, the binding signal is 21600 fluorescence intensity (a.u.).

Regarding “TTGCCGTGCACCCGGCACGCCCACGTAGGCCGGAGCCGCCCGGAGTCACCTAGTGCAG”, the binding signal is 3680 fluorescence intensity (a.u.).

For the sequence “CCGGCCGGTGACATGGGCGTTGCTCCTACTGCCACTTCGGCGGAGTCACCTAGTGCAG”, the binding signal was 4290 fluorescence intensity (a.u.).

As for “AATCCAGTTTCCATTCACTCAGCTGGTCATATTCTATGTTCGGAGTCACCTAGTGCAG”, the binding signal was 3340 fluorescence intensity (a.u.).

As for “CCAATCCTTTAAAATTCCTATGGAATGGGTAATCCTATGCCGGAGTCACCTAGTGCAG”, the binding signal was 3680 fluorescence intensity (a.u.).

For the sequence “ACGTAATTATAATTTATTTTGTTATGAGTTGGTTTATCACCGGAGTCACCTAGTGCAG”, the binding signal is 30400 fluorescence intensity (a.u.).

For the sequence “GGTGTTTTAGCTTTGAGTCAACTTGTTTTAAGTTTGATCACGGAGTCACCTAGTGCAG”, the binding signal is 3670 fluorescence intensity (a.u.).

In the case of “TCAGCTTATGTCGCGTACGTCGTACGTGTCCAGTTCGGAGCGGAGTCACCTAGTGCAG”, the binding signal is 7800 fluorescence intensity (a.u.).

As to “TCTCAACTACTCATAAATGACAGACATTTCTGACAAGCTACGGAGTCACCTAGTGCAG”, the binding signal is 38200 fluorescence intensity (a.u.).

Take “GAGTCTGACAACACGATCCCAATGTTTGCACATGGATTTGCGGAGTCACCTAGTGCAG”: the binding signal was 3290 fluorescence intensity (a.u.).

For “CGGTCGCCTCCTTTGCCCAATCACTCCTCATTCGAACACGCGGAGTCACCTAGTGCAG”, the binding signal is 3280 fluorescence intensity (a.u.).

Turning to “TCAAGGACTGCAACTACTAAATGGACAACACTAGGTTTGACGGAGTCACCTAGTGCAG”, the binding signal was 3420 fluorescence intensity (a.u.).

As to “TGATCCTCAGCTTCCACGTGGACGTACAAGATCACCTCCCCGGAGTCACCTAGTGCAG”, the binding signal is 17700 fluorescence intensity (a.u.).

With “TGCGTGGGAAATGACTAGGAGTAGGTGTTAGGACCACTCACGGAGTCACCTAGTGCAG”, the binding signal was 20400 fluorescence intensity (a.u.).

On to “AGGGAATGATACTACCTTTTCAGCCACTCACCATGACGTTCGGAGTCACCTAGTGCAG”, for which the binding signal is 3190 fluorescence intensity (a.u.).

As for “TTGCTGGAAGCAGATGCAGACTCAGCATTCCAGCCGGACACGGAGTCACCTAGTGCAG”, the binding signal was 3480 fluorescence intensity (a.u.).

Consider “CTGCACGTTACTCACGTGGCATCTCCAACTCTACCGCCAACGGAGTCACCTAGTGCAG”, for which the binding signal is 7570 fluorescence intensity (a.u.).

As for “AAGGTGAGGTTGGTCAACATTTGTCATCAAATTTTGATCACGGAGTCACCTAGTGCAG”, the binding signal is 3400 fluorescence intensity (a.u.).

Take “ATGTCGTTGCATTAAGCACTGACGCTCTTGTCCCGGTTATCGGAGTCACCTAGTGCAG”: the binding signal was 4650 fluorescence intensity (a.u.).

“GGCAGACGACACTGCATTCACTCCGCTGACACGGCGATTACGGAGTCACCTAGTGCAG”: the binding signal was 6660 fluorescence intensity (a.u.).

Turning to “GTCGTGGCGGGAGATGACGTTGATCCTCACGGTGTTGTTGCGGAGTCACCTAGTGCAG”, the binding signal is 7420 fluorescence intensity (a.u.).
